This is an account of results in PMC4254994 (PLoS ONE, 2014).

Protein sequences, listed by entry. Tags and fused reporters are not part of them.
UniProt P9WKX3, whole entry: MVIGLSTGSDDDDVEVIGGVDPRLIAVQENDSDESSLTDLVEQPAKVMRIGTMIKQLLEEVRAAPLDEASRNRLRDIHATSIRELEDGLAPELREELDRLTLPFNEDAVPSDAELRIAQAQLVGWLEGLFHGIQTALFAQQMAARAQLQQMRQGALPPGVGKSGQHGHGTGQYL

No constants are given. Whether binding was seen depends on the method and setting.

For the experiment, the target named is Wild type 20S proteasome PrcAB (mature holoparticle), Strep-tagged (Mycobacterium tuberculosis) (UniProt P9WHU1). As to the kind of experiment: pull-down; both purified.

With “Bacterial proteasome activator Bpa (Rv3780) of Mycobacterium tuberculosis (from UniProt P9WKX3 1-174)”, the binding result is recorded as “no binding”.
